Data from the supplement of paper PMC10849652.
The other results are listed elsewhere or left out.

By UniProt entry, the sequences of proteins in these tests, tags left out. Where a name states a change or a piece, a line headed by the entry shows the natural chain unless it says otherwise.
UniProt Q96AT9: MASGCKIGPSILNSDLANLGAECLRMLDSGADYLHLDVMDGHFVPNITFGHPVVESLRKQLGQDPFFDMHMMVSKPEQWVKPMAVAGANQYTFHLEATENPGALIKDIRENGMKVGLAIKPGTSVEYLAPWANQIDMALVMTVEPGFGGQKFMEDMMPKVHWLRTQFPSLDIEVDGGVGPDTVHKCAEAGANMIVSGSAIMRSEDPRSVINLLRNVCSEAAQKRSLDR
UniProt P04843: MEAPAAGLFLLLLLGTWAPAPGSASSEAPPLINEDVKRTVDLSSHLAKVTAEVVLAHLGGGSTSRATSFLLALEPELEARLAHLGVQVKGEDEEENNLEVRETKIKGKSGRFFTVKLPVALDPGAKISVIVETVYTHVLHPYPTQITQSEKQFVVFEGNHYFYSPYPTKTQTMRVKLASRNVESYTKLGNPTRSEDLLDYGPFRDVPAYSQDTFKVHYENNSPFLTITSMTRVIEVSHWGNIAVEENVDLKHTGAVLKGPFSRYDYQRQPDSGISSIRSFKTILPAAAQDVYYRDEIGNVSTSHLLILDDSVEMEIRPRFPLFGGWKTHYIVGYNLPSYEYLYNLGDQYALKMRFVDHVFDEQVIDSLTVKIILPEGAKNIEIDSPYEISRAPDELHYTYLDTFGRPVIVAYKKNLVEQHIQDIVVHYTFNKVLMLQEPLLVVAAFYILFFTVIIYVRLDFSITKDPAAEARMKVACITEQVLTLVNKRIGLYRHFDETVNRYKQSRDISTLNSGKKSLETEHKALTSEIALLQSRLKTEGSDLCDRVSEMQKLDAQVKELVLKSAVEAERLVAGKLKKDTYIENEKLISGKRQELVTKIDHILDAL
UniProt P08922: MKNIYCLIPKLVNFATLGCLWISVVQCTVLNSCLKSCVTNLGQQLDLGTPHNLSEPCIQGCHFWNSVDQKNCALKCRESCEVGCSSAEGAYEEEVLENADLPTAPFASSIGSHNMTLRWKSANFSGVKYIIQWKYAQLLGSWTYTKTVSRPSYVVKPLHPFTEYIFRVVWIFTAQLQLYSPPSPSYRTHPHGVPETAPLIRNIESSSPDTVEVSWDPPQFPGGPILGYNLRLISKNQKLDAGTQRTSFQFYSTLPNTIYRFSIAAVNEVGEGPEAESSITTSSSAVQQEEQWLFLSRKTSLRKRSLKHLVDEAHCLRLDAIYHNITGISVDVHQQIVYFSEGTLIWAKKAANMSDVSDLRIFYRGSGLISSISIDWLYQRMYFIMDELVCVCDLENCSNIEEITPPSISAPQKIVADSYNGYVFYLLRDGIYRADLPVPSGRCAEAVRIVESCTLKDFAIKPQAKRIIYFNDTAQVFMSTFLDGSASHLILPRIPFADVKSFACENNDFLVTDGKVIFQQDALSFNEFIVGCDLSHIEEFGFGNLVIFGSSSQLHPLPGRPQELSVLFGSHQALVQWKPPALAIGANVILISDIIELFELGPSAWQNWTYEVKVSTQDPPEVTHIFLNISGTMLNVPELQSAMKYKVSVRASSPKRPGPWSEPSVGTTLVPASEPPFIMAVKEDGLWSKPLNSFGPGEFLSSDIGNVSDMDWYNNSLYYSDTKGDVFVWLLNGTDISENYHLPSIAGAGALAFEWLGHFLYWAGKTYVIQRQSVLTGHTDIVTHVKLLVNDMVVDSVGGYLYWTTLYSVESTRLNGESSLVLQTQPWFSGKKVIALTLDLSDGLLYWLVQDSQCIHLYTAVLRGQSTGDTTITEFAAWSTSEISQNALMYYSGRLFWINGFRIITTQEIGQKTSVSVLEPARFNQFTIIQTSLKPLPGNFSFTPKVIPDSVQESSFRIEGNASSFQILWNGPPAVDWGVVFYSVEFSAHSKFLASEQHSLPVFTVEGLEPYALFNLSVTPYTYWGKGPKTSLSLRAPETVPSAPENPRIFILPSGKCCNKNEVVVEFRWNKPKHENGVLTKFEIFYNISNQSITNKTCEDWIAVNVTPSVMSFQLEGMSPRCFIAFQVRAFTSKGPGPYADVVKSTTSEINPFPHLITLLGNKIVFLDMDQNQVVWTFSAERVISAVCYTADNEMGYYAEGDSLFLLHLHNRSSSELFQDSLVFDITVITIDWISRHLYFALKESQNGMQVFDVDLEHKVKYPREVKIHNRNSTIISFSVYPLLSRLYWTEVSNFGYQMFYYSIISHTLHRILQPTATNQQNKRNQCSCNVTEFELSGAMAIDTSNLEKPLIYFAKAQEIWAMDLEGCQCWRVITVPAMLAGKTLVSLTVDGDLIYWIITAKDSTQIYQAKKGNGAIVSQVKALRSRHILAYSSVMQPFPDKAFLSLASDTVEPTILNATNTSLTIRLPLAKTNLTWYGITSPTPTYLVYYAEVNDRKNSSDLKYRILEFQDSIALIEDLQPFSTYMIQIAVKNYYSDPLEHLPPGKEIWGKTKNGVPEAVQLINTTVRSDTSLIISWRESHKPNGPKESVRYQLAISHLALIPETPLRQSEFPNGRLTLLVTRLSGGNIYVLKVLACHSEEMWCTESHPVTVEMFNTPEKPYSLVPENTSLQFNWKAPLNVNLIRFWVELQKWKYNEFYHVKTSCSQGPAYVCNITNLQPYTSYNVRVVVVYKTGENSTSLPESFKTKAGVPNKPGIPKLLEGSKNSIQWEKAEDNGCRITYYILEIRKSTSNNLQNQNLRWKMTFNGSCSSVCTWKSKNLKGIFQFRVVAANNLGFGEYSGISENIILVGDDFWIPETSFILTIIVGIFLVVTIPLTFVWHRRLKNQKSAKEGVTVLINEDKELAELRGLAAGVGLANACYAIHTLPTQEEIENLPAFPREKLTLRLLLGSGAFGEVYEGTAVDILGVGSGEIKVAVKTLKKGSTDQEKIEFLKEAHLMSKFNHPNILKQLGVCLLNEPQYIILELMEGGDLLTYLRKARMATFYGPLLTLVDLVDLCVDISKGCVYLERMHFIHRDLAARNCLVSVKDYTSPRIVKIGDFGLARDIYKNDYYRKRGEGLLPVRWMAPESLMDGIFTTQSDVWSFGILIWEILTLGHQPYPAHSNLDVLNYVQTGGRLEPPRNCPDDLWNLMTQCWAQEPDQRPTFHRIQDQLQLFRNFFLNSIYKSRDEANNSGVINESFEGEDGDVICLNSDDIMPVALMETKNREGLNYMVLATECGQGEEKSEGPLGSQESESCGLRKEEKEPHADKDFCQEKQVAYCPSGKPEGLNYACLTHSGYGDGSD

compound: c1cn2cc(-c3ccc4cn[nH]c4c3)nc(Nc3ccc(N4CCOCC4)cc3)c2n1 [entospletinib]; test: log2 fold change, soluble protein after heating vs DMSO (PISA); higher = thermal stabilisation; K562 cells, 10 uM, 30 min; active = over 0.2 and 3.5 SD of the protein, either way, in both replicates (recomputed)
Procedure, shortened: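 K562 cells at 2×10^6 cells/mL were given 10 μM compound for 30 min. Aliquots then went through 3 min of heating across 48°C-58°C, were pooled, and were extracted in PBS with 0.5% NP-40 at 4°C, and the supernatant after 21,000xg for 90 min was quantified by TMTpro 16plex LC-MS/MS with channel sums equalised. Thermal stability relative to control samples, from duplicates, is given as log2 fold change.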

log2 fold change, inactive:
RPL7A (UniProt P62424) 0.198
RPE (UniProt Q96AT9) 0.022
RPN1 (UniProt P04843) -0.018
RPL5 (UniProt P46777) 0.147
RPL9 (UniProt P32969) 0.103
RPS23 (UniProt P62266) 0.09
RPL12 (UniProt P30050) 0.135
RPL23A (UniProt P62750) 0.042
RPL37A (UniProt P61513) 0.127
ROS1 (UniProt P08922) -0.241
RPSA (UniProt P08865) 0.042

Not a retest: entries from further up.
log2 fold change, inactive:
RPE (UniProt Q96AT9) 0.022
RPN1 (UniProt P04843) -0.018
RPL5 (UniProt P46777) 0.147
